Drawing on article PMC11183041, this text covers binding for one substance.

The chains behind the UniProt entries cited, without tags or fusion partners. Residues count along the entry.
UniProt Q9NZQ7, residues 19-290: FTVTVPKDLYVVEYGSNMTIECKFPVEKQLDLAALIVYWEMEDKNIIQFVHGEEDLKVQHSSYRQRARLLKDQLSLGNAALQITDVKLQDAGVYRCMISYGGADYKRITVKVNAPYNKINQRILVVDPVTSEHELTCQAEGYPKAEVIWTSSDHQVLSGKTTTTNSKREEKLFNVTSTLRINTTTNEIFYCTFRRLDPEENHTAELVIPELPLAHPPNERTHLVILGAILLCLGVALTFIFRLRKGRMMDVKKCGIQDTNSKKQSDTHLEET
UniProt P02652, residues 19-100: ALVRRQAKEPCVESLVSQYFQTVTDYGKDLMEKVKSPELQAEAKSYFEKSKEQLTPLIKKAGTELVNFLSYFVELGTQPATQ

No constants are given. Whether binding was seen depends on the method and setting. In cells and extracts the contact can be indirect. Some binding calls cover weakened binding; strength is not graded here.

The assay concerns the target programmed death ligand 1 (PD-L1) (UniProt Q9NZQ7). Nature of the assay: co-IP; in HEK293T cells; legend: verified 'from both positive and negative aspects'; bait and detection not told.

APOA2 (from UniProt P02652 19-100): the binding entry was “binds”.
